Results from paper PMC10976589.
Results are given in words; binding and its absence hold for the method and conditions named. Binding seen in cells or lysates may run through a third protein. Some entries that bind do so weakly or less than the wild type.

Chains of the proteins cited; added tags and fusions are not shown. Lines headed by an entry give the natural chain unless they say otherwise; changes in a name come on top. A line that says so, or that is headed by a name, gives the form on record, which may keep a tag or linker.
UniProt P23528: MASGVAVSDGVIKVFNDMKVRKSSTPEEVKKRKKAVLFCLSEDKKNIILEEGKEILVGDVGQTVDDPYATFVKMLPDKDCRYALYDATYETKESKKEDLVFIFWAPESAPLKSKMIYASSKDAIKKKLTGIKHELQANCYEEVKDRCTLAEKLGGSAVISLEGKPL
UniProt Q9Y281: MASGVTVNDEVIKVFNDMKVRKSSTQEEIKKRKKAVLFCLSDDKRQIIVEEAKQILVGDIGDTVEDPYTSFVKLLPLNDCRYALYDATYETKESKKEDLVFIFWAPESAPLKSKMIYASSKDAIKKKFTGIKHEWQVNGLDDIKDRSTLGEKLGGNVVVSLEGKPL
His-cofilin2ΔS24 (cofilin2 without Ser24) (Q9Y281, form named): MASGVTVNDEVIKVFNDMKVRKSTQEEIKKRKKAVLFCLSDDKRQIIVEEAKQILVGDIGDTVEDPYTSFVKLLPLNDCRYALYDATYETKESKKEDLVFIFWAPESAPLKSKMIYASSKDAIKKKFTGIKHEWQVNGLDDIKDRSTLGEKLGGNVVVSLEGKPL
UniProt P78527: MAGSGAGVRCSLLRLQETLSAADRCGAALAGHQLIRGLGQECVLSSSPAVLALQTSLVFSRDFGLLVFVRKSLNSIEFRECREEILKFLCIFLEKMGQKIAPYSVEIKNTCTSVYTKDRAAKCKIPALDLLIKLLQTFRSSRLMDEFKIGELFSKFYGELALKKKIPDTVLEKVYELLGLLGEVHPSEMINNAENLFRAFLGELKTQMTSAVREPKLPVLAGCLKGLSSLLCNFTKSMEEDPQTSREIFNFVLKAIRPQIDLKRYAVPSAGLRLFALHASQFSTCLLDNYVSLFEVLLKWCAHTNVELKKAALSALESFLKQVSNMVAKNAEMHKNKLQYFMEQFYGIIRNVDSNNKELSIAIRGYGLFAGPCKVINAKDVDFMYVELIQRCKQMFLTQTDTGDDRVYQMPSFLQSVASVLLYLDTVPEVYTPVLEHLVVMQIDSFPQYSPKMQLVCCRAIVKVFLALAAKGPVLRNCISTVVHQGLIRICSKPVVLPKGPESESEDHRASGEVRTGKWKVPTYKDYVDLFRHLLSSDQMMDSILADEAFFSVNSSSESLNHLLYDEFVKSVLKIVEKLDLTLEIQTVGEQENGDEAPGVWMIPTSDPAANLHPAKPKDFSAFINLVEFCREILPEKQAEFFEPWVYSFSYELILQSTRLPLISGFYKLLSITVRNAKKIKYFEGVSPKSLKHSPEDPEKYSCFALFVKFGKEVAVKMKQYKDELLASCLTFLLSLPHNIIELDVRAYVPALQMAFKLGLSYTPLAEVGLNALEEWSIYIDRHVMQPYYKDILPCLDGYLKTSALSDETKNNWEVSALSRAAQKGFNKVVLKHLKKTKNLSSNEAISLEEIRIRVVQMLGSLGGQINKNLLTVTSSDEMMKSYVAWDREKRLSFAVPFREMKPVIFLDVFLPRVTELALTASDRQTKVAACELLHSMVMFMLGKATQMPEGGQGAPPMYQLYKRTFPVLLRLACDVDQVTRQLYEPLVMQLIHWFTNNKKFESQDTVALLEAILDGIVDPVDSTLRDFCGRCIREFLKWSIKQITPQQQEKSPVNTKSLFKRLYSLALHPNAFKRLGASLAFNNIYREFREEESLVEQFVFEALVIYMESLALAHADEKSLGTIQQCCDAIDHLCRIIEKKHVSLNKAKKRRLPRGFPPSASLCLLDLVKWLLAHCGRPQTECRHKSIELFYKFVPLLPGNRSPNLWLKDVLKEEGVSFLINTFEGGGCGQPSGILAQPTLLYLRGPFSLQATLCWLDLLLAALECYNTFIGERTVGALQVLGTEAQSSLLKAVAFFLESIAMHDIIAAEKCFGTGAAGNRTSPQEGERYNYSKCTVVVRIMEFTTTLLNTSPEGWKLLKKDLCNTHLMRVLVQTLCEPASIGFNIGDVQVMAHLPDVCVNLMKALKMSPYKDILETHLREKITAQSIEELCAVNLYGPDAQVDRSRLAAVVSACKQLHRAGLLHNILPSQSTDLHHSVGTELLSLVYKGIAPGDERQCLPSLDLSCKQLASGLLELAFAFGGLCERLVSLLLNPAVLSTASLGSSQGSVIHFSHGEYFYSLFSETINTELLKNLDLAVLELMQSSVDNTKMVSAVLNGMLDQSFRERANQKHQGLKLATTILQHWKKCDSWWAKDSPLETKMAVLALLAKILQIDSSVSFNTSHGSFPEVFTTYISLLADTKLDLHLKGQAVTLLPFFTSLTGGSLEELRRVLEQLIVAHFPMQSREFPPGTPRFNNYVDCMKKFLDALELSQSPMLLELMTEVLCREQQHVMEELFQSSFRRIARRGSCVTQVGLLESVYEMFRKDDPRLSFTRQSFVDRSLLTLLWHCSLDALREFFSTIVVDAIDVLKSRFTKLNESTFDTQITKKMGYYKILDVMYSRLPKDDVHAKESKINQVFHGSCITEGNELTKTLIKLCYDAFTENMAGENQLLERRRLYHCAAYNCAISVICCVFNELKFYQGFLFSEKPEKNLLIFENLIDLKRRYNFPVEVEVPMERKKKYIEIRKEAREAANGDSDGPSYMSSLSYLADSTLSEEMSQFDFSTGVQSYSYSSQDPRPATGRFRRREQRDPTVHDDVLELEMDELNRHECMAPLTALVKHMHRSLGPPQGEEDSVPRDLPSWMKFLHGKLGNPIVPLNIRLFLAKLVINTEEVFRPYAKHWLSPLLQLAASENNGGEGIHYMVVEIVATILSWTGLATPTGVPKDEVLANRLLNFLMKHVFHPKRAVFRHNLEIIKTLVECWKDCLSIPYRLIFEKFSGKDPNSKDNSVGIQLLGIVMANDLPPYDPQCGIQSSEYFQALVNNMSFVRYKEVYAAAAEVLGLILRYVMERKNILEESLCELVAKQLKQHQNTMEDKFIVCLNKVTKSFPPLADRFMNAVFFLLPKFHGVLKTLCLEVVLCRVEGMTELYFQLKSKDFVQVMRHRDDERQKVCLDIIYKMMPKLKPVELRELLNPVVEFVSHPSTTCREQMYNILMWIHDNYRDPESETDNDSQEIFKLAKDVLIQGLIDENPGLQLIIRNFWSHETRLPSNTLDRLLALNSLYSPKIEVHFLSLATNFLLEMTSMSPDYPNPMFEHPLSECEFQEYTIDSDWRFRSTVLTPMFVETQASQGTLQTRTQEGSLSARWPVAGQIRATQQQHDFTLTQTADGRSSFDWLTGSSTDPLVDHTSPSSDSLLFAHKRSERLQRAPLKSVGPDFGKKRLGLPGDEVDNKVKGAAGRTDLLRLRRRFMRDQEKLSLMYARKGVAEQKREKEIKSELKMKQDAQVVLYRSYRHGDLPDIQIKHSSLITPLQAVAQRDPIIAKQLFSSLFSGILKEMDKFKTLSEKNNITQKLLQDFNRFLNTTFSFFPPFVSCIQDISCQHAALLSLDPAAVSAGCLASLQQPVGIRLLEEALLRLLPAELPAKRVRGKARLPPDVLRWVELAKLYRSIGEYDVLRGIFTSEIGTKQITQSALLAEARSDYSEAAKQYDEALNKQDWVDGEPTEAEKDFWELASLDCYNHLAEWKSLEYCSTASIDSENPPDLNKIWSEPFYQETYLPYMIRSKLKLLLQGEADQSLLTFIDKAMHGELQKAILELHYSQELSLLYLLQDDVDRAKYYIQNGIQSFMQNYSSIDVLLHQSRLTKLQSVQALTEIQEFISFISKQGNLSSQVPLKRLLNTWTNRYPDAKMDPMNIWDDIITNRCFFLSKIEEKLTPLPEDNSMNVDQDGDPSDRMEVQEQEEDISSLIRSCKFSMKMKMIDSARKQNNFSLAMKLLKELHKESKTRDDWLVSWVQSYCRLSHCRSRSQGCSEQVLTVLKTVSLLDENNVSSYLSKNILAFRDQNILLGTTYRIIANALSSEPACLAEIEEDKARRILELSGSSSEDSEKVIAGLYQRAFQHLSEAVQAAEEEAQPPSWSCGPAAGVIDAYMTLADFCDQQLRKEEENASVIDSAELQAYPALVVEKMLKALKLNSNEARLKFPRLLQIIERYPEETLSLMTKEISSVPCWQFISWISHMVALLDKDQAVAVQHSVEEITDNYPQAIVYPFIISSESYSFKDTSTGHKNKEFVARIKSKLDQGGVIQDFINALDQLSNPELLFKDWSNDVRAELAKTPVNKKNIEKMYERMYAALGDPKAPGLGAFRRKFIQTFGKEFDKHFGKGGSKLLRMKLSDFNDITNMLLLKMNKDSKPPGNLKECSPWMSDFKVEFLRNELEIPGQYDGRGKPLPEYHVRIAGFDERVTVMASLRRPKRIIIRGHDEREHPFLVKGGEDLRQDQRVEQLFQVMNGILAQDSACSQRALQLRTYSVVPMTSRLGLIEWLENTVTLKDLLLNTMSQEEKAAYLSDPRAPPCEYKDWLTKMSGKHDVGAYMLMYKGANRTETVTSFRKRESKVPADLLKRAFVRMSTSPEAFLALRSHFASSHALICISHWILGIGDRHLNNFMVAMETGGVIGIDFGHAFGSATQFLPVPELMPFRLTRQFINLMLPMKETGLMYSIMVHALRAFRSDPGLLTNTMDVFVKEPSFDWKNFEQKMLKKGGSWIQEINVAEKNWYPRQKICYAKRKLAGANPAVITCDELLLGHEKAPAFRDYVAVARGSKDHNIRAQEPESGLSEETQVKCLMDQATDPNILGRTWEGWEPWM

Tests used:
[1] = molecular target: cofilin1, endogenous in HCAECs (human (endogenous in HCAECs)) (UniProt P23528); experiment: co-IP; endogenous proteins of HCAECs, control conditions or LPS; immunoprecipitates of DNA-PKcs and of cofilin1, cofilin2 or ADF immunoblotted (Fig. 6F to H)
[2] = molecular target: T1, ADF (destrin), endogenous in HCAECs (human (endogenous in HCAECs)) (UniProt P60981); experiment: as above
T1 sequence: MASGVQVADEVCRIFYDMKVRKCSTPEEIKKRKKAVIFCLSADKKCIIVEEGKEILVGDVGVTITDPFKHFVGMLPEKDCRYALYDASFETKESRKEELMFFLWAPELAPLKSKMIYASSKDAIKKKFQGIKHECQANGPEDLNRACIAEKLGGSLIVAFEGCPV

[3] = molecular target: cofilin2, endogenous in HCAECs (human (endogenous in HCAECs)) (UniProt Q9Y281); experiment: as above
[4] = molecular target: His-cofilin2ΔS24 (cofilin2 without Ser24) (UniProt Q9Y281); experiment: co-IP; HCAECs transfected with His-tagged cofilin2 deletion constructs, exposed to LPS; His immunoprecipitates immunoblotted for DNA-PKcs (Fig. 6M)
[5] = molecular target: cofilin1, endogenous in HCAECs (human (endogenous in HCAECs)) (UniProt P23528); experiment: co-IP; exogenous HA-DNA-PKcs (Fig. S8C to E); cells and treatment not told in the text shown
[6] = molecular target: T1, ADF (destrin), endogenous in HCAECs (human (endogenous in HCAECs)); experiment: as above
[7] = molecular target: cofilin2, endogenous in HCAECs (human (endogenous in HCAECs)) (UniProt Q9Y281); experiment: as above

binding [1] | binding [2] | binding [3] | binding [4] | binding [5] | binding [6] | binding [7] | Substance
no binding | no binding | binds | binds |  |  |  | catalytic subunit of DNA-dependent protein kinase (DNA-PKcs), endogenous in HCAECs (from UniProt P78527 1-4128) (enzyme)
 |  |  |  | no binding | no binding | binds | HA-DNA-PKcs (catalytic subunit of DNA-dependent protein kinase, HA-tagged, exogenous) (from UniProt P78527 1-4128) (enzyme)
